Measured values published in PubChem BioAssay AID1347075 (National Center for Advancing Translational Sciences (NCATS), 2019).
The campaign covered roughly 400,000 compounds. About 5,500 (1.4%) were called active. The shares of active, inactive and inconclusive entries below differ from those in the screen. The call rests on the fitted dose curve; in most records, active means well fitted cell-killing curve with a large enough effect; inconclusive means small, poorly fitted or top-dose-only effect, or effect the other way; inactive means flat fitted curve, though single readings scatter. Potencies beside an inconclusive call are fits to weak or partial responses and may not hold up.
On the % scale 0 is the no-effect control and ±100 the full control effect; potency means the concentration at half of the fitted maximal effect.

Assay: qHTS assay for MDR1-selective chemotherapeutics: Primary screen using the parental adenocarcinoma cell KB-3-1; further: nearly all actives have a fitted effect of over 60% in size
Conditions: KB-3-1 viability, CellTiter-Glo ATP luminescence, 72 h; activity change, negative = cytotoxic: at 46.1 µM (top of the series)
Outline: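 Luminescent ATP read-out (CellTiter-Glo) measures survival of drug-naive KB-3-1 cells after 72 h compound exposure at 37 °C. Titration series was screened from lowest to highest concentration, with DMSO vehicle plates as background controls.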
With `CCCCNC(=O)c1nc(-c2cc3ccccc3[nH]2)oc1-c1ccccc1` the “activity change, negative = cytotoxic” value was inactive: -15.3%.
With `Cc1ccc(O)c(N=Nc2ccc(S(=O)(=O)N3CCOCC3)cc2)c1` the “activity change, negative = cytotoxic” value was inactive: 2.89%.
In the case of `CNC(=S)N/N=C/c1ccc(C(C)C)cc1`, the Potency was inconclusive: 29.1 µM [cytotoxic, single point].
For `CCOC(=O)c1cnc2cc(-c3ccc(C(C)(C)C)cc3)nn2c1N`, the “activity change, negative = cytotoxic” value was inactive: -16.2%.
In the case of `COc1ccccc1NC(=O)CSc1nnnn1C1CCCC1`, the Potency was inconclusive: 0.731 µM [rising, full curve, poor fit].
In the case of `Cc1nc2cccnc2n1C1CCN(S(=O)(=O)N(C)C)CC1`, the “activity change, negative = cytotoxic” value was inactive: 16.8%.
In the case of `Cc1cc(C)c(S(=O)(=O)Cc2ccccc2)c(=O)[nH]1`, the “activity change, negative = cytotoxic” value was inactive: 1.66%.
In the case of `Fc1ccc(/C=C/c2nccc3ccccc23)cc1`, the Potency was active: 18.4 µM.
In the case of `Cc1ccccc1N=C1Nc2ccccc2CS1`, the Potency was inconclusive: 20.6 µM [cytotoxic, partial curve].
In the case of `CCOC(=O)c1ccc(NC(=O)C2(c3ccc(Cl)cc3)CCCC2)cc1`, the Potency was inconclusive: 29.1 µM [cytotoxic, single point].
In the case of `O=C1c2cc([N+](=O)[O-])ccc2-c2cc(Br)c(N=C(NO)C(F)(F)F)cc21`, the Potency was inconclusive: 25.9 µM [cytotoxic, single point].
In the case of `Cc1ccc(OCCN2CCN(c3ncnc4sc(C)c(C)c34)CC2)cc1`, the Potency was inconclusive: 7.31 µM [cytotoxic, partial curve].
For `c1ccc(-c2nc(SCC3CCCCO3)n[nH]2)cc1` (configuration not stated), the Potency was inconclusive: 29.1 µM [rising, single point].
In the case of `CCc1nnc(NC(=O)c2ccc(S(=O)(=O)N(CC(C)C)CC(C)C)cc2)o1`, the Potency was inconclusive: 29.1 µM [cytotoxic, single point].
In the case of `Cc1ccc(/C=N/NC(=O)CNC(=O)Cc2ccccc2)o1`, the “activity change, negative = cytotoxic” value was inactive: 11.7%.
With `CCCN(CCC)CCCNC(=O)c1cn(CC)c2ccc(S(=O)(=O)N(C)C3CCCCC3)cc2c1=O` the Potency was inconclusive: 29.1 µM [cytotoxic, single point].
In the case of `COC(=O)N/N=C/c1ccc(-c2cc(Cl)cc(Cl)c2)o1`, the Potency was inconclusive: 2.31 µM [rising, full curve, poor fit].
With `COc1cccc(CN2CCN(C3CCOCC3)CC2CCO)c1` (configuration not stated) the Potency was inconclusive: 0.517 µM [rising, full curve].
For `COc1ccc(-c2nc(-c3ccccc3)nc(Cl)c2C#N)cc1`, the Potency was inconclusive: 29.1 µM [cytotoxic, single point].
With `CCN(CC)c1ccc2cc(C=O)c(=O)oc2c1` the Potency was inconclusive: 23.1 µM [cytotoxic, single point].
With `CCn1cc(S(=O)(=O)Nc2cc(C(=O)OC)ccc2C)cn1` the Potency was inconclusive: 29.1 µM [cytotoxic, single point].
For `CC(C)OCc1ccc(C(=O)N2CCN(S(=O)(=O)c3ccc(Br)s3)CC2)cc1`, the Potency was inconclusive: 32.6 µM [cytotoxic, single point].
With `COc1cccc(N2CCN(C(=O)C3Cc4ccccc4N3C(C)=O)CC2)c1` (configuration not stated) the “activity change, negative = cytotoxic” value was inactive: 12.2%.
In the case of `CC(C)c1ccc(NC(=O)Nc2nc(C(N)CCc3ccccc3)cs2)cc1` (configuration not stated), the Potency was inconclusive: 29.1 µM [cytotoxic, single point].
For `CCn1c(SCC(=O)N2CCOCC2)nc2ccccc21`, the Potency was inconclusive: 29.1 µM [rising, single point].
In the case of `CCCCNc1nc(-c2ccccc2)c(C(=O)OCC)cc1C#N`, the Potency was inconclusive: 29.1 µM [cytotoxic, single point].
For `Cc1cc(C)nc(N=Nc2c(O)n(Cc3ccc(Cl)cc3)c3ccccc23)n1`, the Potency was inconclusive: 20.6 µM [cytotoxic, single point].
With `COc1ccccc1CNc1nc(NCc2ccc(NC(C)=O)cc2)c2sccc2n1` the Potency was inconclusive: 29.1 µM [cytotoxic, single point].
With `COc1ccc(OC)c(Nc2cc(-c3ccccc3)nc(N)n2)c1` the Potency was active: 1.03 µM.
In the case of `CC(C)Cc1nnc(NC(=O)CCC(=O)NC2CCCC2)s1`, the “activity change, negative = cytotoxic” value was inactive: 3.88%.
In the case of `S=C(NCCN1CCOCC1)Nc1ccc(-c2nc3ccccc3[nH]2)cc1`, the Potency was inconclusive: 18.4 µM [cytotoxic, partial curve, poor fit].
For `Cn1c(N)c(C(=O)CSc2nc(C3CC3)n(-c3ccccc3)n2)c(=O)n(C)c1=O`, the “activity change, negative = cytotoxic” value was inactive: -1.8%.
With `COc1ccccc1NC(=O)C1=C(C)Nc2nc(CCCO)nn2C1c1cccc(O)c1` (configuration not stated) the “activity change, negative = cytotoxic” value was inactive: 0.517%.
In the case of `COc1ccccc1N1CCN(CC(=O)Nc2sccc2C#N)CC1`, the “activity change, negative = cytotoxic” value was inactive: -4.78%.
For `NS(=O)(=O)c1ccc(CCNC(=O)COC(=O)/C=C/c2cc(Br)ccc2F)cc1`, the “activity change, negative = cytotoxic” value was inactive: -20.8%.
In the case of `O=C(Nc1ccc(Cl)cn1)c1ccccc1SCc1ccccc1`, the “activity change, negative = cytotoxic” value was inactive: -23.3%.
For `Cc1ccc(CC2(C)C(=O)Nc3c(Cl)ccc(Cl)c32)cc1` (configuration not stated), the Potency was inconclusive: 29.1 µM [cytotoxic, single point].
For `CN1CCN(CCCNC(=O)c2cc3c(=O)n(C)c4ccccc4c3s2)CC1`, the Potency was inconclusive: 11.6 µM [cytotoxic, partial curve, poor fit].
In the case of `CCOc1ccc(C(C(=O)Nc2ccc(F)cc2)N(C(=O)Cn2nnc3ccccc32)C2CC2)cc1` (configuration not stated), the “activity change, negative = cytotoxic” value was inactive: 11.9%.
In the case of `CN(Cc1ccccc1)C(c1cc2ccccc2o1)c1nnnn1C(C)(C)C` (configuration not stated), the Potency was inconclusive: 29.1 µM [cytotoxic, single point].
For `Cc1ccc(S(=O)(=O)N2CCCc3cc(NS(=O)(=O)c4cc(F)ccc4F)ccc32)cc1`, the Potency was inconclusive: 13 µM [cytotoxic, partial curve].
For `O=C(CSc1nnc(COc2ccccc2)n1Cc1ccco1)NCc1ccco1`, the “activity change, negative = cytotoxic” value was inactive: 4.15%.
In the case of `CNS(=O)(=O)c1cccc(C(=O)OCC(=O)Nc2ccc(Cl)cc2F)c1`, the activity change, negative = cytotoxic was inconclusive: 10.2%.
With `CC(C)c1ccc(NC(=O)CC2NCCNC2=O)cc1` (configuration not stated) the “activity change, negative = cytotoxic” value was inactive: -1.36%.
For `O=C(Cn1cc(S(=O)(=O)N2CCCC2)c(S(=O)(=O)N2CCCC2)c1)Nc1ccccc1`, the Potency was inconclusive: 18.4 µM [rising, partial curve].
With `Cc1ccc(CN2C(=O)c3ccccc3NC23CCN(Cc2ccccc2)CC3)cc1` the Potency was inconclusive: 29.1 µM [cytotoxic, single point].
In the case of `COc1cc(/C=C/c2ccc3c(Br)cc(Br)c(O)c3n2)ccc1O`, the Potency was inconclusive: 2.59 µM [cytotoxic, full curve, poor fit].
With `Cn1cnc([N+](=O)[O-])c1S(=O)(=O)Oc1ccccc1` the Potency was inconclusive: 29.1 µM [cytotoxic, single point].
In the case of `COc1ccc2c(c1)-c1nc(NC(=O)c3ccc(OC)c(Br)c3)sc1CC2`, the “activity change, negative = cytotoxic” value was inactive: 5.47%.
For `CCc1nnc(NC(=O)c2cc(S(=O)(=O)N3CCOCC3)ccc2N2CCCCC2)s1`, the Potency was inconclusive: 29.1 µM [rising, single point].
In the case of `COc1ccc(OC)c(NC(=O)c2c(NCc3sccc3C)sc3c2CCCCC3)c1`, the Potency was inconclusive: 14.6 µM [rising, partial curve].
With `OC(COc1ccc(OCC(O)CN2CCCCCC2)cc1)CN1CCCCCC1` (configuration not stated) the “activity change, negative = cytotoxic” value was inactive: -16.5%.
In the case of `COc1ccc2cc3cc(C(=O)NCCCN4CCOCC4)oc3nc2c1`, the Potency was inconclusive: 18.4 µM [cytotoxic, partial curve, poor fit].
With `O=C(c1ccccc1)N1CCN2C(=O)c3ccccc3C12c1ccc(Cl)cc1` (configuration not stated) the Potency was inconclusive: 29.1 µM [cytotoxic, single point].
For `CCNC(=S)Nc1ccc(OCc2nc3ccccc3s2)cc1`, the “activity change, negative = cytotoxic” value was inactive: -10.1%.
With `CCN(CC)C(=O)C1CCC(CNS(=O)(=O)c2cccc3cccnc23)CC1` (configuration not stated) the “activity change, negative = cytotoxic” value was inactive: 15.1%.
In the case of `O=[N+]([O-])c1cc(Cl)c2cccnc2c1O`, the Potency was inconclusive: 10.3 µM [cytotoxic, single point].
For `Cc1nn(-c2ccccc2)c(C)c1/C=C/C(=O)OCC(=O)NC1CCS(=O)(=O)C1` (configuration not stated), the Potency was inconclusive: 4.11 µM [rising, partial curve, poor fit].
With `COc1cccc(/C=C2\SC(=S)N(CCCC(=O)N3CCOCC3)C2=O)c1` the Potency was inconclusive: 11.6 µM [cytotoxic, partial curve].
With `O=C(C1CCN(S(=O)(=O)c2ccc(-n3cnnn3)cc2)CC1)N1CCCCC1` the Potency was inconclusive: 23.1 µM [cytotoxic, single point].
For `COc1ccccc1NC(=O)CCn1nc(-c2ccccc2OC)c2c(C)cc(C)nc21`, the “activity change, negative = cytotoxic” value was inactive: 1.22%.
With `Cn1c(SCC(=O)NC2CCCC2)nnc1C(F)(F)F` the “activity change, negative = cytotoxic” value was inactive: 1.04%.
In the case of `COc1ccc2c(c1)c(C(O)CN1CCN(Cc3ccc4c(c3)OCO4)CC1)c(C)n2C` (configuration not stated), the Potency was inconclusive: 29.1 µM [cytotoxic, single point].
For `O=C(/C=C/c1cccc(F)c1)NCCCn1ccnc1`, the “activity change, negative = cytotoxic” value was inactive: -5.06%.
In the case of `CCOC(=O)C1CCCN(C(=O)c2cc3cc4ccc(OC)cc4nc3o2)C1` (configuration not stated), the Potency was inconclusive: 25.9 µM [rising, single point].
With `COc1ccc(-c2cn(CCO)c(-c3ccncc3)n2)cc1` the Potency was inconclusive: 32.6 µM [rising, single point].
With `O=C(C[n+]1cnn(CC(=O)c2ccc(Cl)cc2Cl)c1)c1ccc([N+](=O)[O-])cc1` the Potency was active: 18.4 µM.
With `CCOC(=O)C1CCN(C(=O)C(=O)c2cn(CC(=O)N3CCCCCC3)c3ccccc23)CC1` the Potency was inconclusive: 20.6 µM [cytotoxic, single point].
For `CCCCC1C2=C(CC(C)(C)CC2=O)OC2=C1C(=O)CC(C)(C)C2`, the “activity change, negative = cytotoxic” value was inactive: -10.3%.
For `CCOc1ccc(NC(=O)c2ccc(CN3CCc4ccccc4C3)cc2)cc1`, the Potency was inconclusive: 1.16 µM [cytotoxic, full curve, poor fit].
In the case of `O=C(Nc1ccc(S(=O)(=O)Nc2ccc(F)cc2)cc1)c1ccc(CN2CCOCC2)cc1`, the Potency was active: 3.66 µM.
In the case of `CCOC(=O)c1c(C)oc2c(F)c(F)c(F)c(F)c2c1=O`, the Potency was inconclusive: 2.91 µM [cytotoxic, full curve, poor fit].
